{
  "sequences": {"note": "Protein sequences, listed by entry. Tags and fused reporters are not part of them.", "UniProt P49137, whole entry": "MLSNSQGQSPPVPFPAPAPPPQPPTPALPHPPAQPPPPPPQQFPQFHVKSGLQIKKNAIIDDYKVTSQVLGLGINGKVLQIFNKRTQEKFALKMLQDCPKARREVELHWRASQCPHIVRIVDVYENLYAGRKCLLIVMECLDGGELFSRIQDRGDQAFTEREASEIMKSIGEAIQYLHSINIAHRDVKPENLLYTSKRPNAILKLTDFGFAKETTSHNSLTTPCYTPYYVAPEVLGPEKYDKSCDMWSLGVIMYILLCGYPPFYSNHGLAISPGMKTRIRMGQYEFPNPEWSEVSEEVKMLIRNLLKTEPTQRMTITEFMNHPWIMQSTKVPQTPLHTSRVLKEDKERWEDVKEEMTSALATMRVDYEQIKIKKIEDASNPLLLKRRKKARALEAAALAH"},
  "source": "patent US20230135894A1",
  "about": "“MK2 DEGRADERS AND USES THEREOF” (Kymera Therapeutics, Inc., priority 2021, published 2023)",
  "key": {"MK2 [1]": {"target": "T1, MK2 (Homo sapiens, UniProt P49137)", "assay": "MK2 degradation in human SW1353 cells (MSD, 24 h)", "assay_type": "cell-based", "parameters": "endogenous in cells; host or cells: SW-1353 (ATCC HTB-94); key: A (<0.001 μM); B (0.001-0.01 μM); C (0.01-0.1 μM); D (>0.1 μM); —: “-”=not tested or inactive", "description": "MK2 Degradation in Human SW1353 Cells\nThe human chondrocyte cancer cell line SW-1353 (ATCC(HTB-94)) was cultured in 96 well plates (Corning 3894) at a density of 200,000 cells per well in 100 microlitres in complete growth medium of Leibovitz's L-15 Medium (Gibco) pus 10% fetal Bovine Serum (Corning) and Penicillin/Streptomycin (SolarBio) at 37 degrees Celsius. A serial dilution of each compound (usually 3 to 5 fold serial dilutions up to 10 separate concentration points) was added to individual wells from a 10 millimolar stock solution, at a background concentration of 0.1% DMSO and the cells were shaken at 600 rpm for 5 minutes and then were cultured for 24 hours at 37 degrees Celsius. Separately, a custom MSD (MesoScaleDiscovery, L15XA-3) plate for detection of human MK2 was prepared by coating the plate with the commercial AbCam ab247272 reagent in 1×Phosphate Buffered Saline at 40 microlitres per well and incubated at 4 degrees Celsius overnight. […]\nAfter 3 more washes, the secondary detection antibody (SULFO-Tag anti rabbit antibody R32AB-5) was added at a final concentration of 1 microgram per ml at 25 microlitres per well and shaken at room temperature for 1 hour at 600 rpm. After 3 more washes, the 1×MSD (diluted from 5× concentrate with water) reading buffer was added at 150 microlitres per well and read on the MSD instrument Meso Sector S 600. […]"}, "MK2 [2]": {"target": "T1, MK2", "assay": "MK2 degradation in human THP-1 monocytic cells (MSD, 24 h)", "assay_type": "cell-based", "parameters": "endogenous in cells; key: A (<0.001 μM); B (0.001-0.01 μM); C (0.01-0.1 μM); D (>0.1 μM); —: “-”=not tested or inactive", "conditions": "THP-1 cells", "description": "MK2 Degradation in Human THP-1 Monoctyic Cells\nThe human monocytic cancer cell line THP-1 (ATCC (TIB-202)) was cultured in 96 well plates (Corning 3894) at a density of 200,000 cells per well in 100 microlitres in complete growth medium of RPMI 1640 (Gibco) pus 10% fetal Bovine Serum (Corning) and Penicillin/Streptomycin (SolarBio) at 37 degrees Celsius and 5% CO2. […]\nAfter 3 more washes, the secondary detection antibody (SULFO-Tag anti rabbit antibody R32AB-5) was added at a final concentration of 1 microgram per ml at 25 microlitres per well and shaken at room temperature for 1 hour at 600 rpm. After 3 more washes, the 1×MSD (diluted from 5× concentrate with water) reading buffer was added at 150 microlitres per well and read on the MSD instrument Meso Sector S 600.\nThe inhibition/degradation curves and DC50 values were plotted and calculated using XL Fit (version v5.3.1.3) using equation 201 and a 4 parameter logistic model whereby fit=(A+((B−A)/(1+((x/C)D))) where A is the Bottom and B is the Top and C is the IC50 and D is the slope and high C is the signal for the DMSO treated cells and Low C is the signal is the signal for the lysis buffer."}},
  "note": "At least one compound was matched to its structure with a doubt left.",
  "data": [
    {"smiles": "COc1cc(-c2ccc3c(ccc4sc5c(c43)NC[C@@H](C)NC5=O)n2)c(F)cc1N1CCN(CC2CCN(c3ccc4c(c3)n(C)c(=O)n4C3CCC(=O)NC3=O)CC2)CC1", "note": "(some centres unmarked) [Compound I-180]", "values": [
      {"measurement": "MK2 MSD SW1353 degradation 24 h GMean External Abs DC50", "setting": "MK2 [1]", "value": "—"},
      {"measurement": "MK2 MSD THP-1 degradation 24 h GMean External Abs DC50", "setting": "MK2 [2]", "value": "—"}
    ]}
  ]
}
